Experimental data: PMC10699890
These are yes or no findings as the source states them, for the method shown. For some assays here: In cells and extracts the contact can be indirect. Some entries that bind do so weakly or less than the wild type. Tags and fused reporters may be left off the sequences shown. Each block holds one binder with its values, some of them ahead of it.

Assays:
[1] = target: T1, AGL15 (bait of the yeast 2‐hybrid screen) (Arabidopsis thaliana) (UniProt Q38847); assay: two-hybrid; yeast 2-hybrid screen for proteins that interact with AGL15; details in Hill et al. (2008)
T1 sequence: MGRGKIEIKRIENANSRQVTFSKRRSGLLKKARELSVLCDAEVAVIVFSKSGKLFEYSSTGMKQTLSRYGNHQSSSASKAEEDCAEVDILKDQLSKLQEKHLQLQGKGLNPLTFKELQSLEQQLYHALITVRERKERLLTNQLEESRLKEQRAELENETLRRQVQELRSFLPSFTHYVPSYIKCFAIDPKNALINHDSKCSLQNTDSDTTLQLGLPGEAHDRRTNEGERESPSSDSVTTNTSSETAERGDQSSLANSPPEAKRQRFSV

[2] = target: T2, AGAMOUS LIKE15 (AGL15) in embryonic culture tissue (Arabidopsis thaliana) (UniProt Q38847); assay: co-IP; nuclear extract of 35S:LBD40-10x-c-Myc::35S:AGL15 ECT, sonicated, treated with benzonase; immunoprecipitated with anti-AGL15 serum (pre-immune as control); blot with anti-c-myc and anti-AGL15
T2 sequence: T1 sequence

binding [1]: binds
B1: AD (activation domain)‐LBD40 (protein, UniProt Q9ZW96 1-233)
chain: MRMSCNGCRVLRKGCSENCSIRPCLQWIKSAESQANATVFLAKFYGRAGLMNLLNTGPDHLRPAIFRSLLYEACGRIVNPIYGSVGLLWSGNWHLCQAAVEAVMRGSPVTPIACDAAVTGQAPPFNNKLCDIRHVSSRDENVKRRSRGACKEERNVRSLSHESSLSHESPVSSEETTTEEPKTWIGLELTLGLEPLARGNHVVVPMKKRKLERCGTSEDEDTCKIELGLVCSE

binding [2]: binds
B2: LBD40‐10x‐c‐Myc (protein, UniProt Q9ZW96 1-233)
chain: B1 chain
